Measurements published in PubChem BioAssay AID1347076 (National Center for Advancing Translational Sciences (NCATS), 2019).
Where “and” joins values, the source holds several entries; their conditions need not be identical. Equal entries are not always repeated. In all, about 400,000 compounds went through this assay and about 13,000 (3.2%) were called active. Inconclusive means that the source gave no clear call. Such entries were picked first, then a sample of the others. Calls follow the shape of the dose curve; as a rule, active = well fitted cell-killing curve with a large enough effect; inconclusive = small, poorly fitted or top-dose-only effect, or effect the other way; inactive = flat fitted curve, though single readings scatter. Where the call is inconclusive, the potency comes from a doubtful curve fit.
% is scaled to controls: 0 for no effect and ±100 for the full control effect; potency is read from the fitted curve at half-maximal effect.

Test: qHTS assay for MDR1-selective chemotherapeutics: Primary screen using the drug-selected MDR subline cells KB-V1; also: nearly all actives have a fitted effect of over 60% in size
Settings: KB-V1 MDR cells viability, CellTiter-Glo, 72 h; activity change, negative = cytotoxicity: at 46.1 µM (top of the series)
Source text: A prime difficulty in effectively treating cancer is the development of cellular resistance to multiple structurally unrelated anticancer drugs, a phenomenon known as multidrug resistance (MDR). […] Numerous strategies to overcome P-gp-mediated MDR have been explored, including the design of drugs that evade recognition and efflux, and development of inhibitors to block efflux and restore drug accumulation. […] An alternative approach is to exploit resistance by identifying drugs that target MDR cells over the non-resistant parental cells from which they were selected. […] The development of MDR1-selective agents represents a new strategy for resolving multidrug resistance, as it remains a long-standing clinical challenge for cancer chemotherapy.
Our goal is to identify compounds that selectively kill P-gp-expressing MDR cells. We will identify MDR1-selective compounds by comparing toxicity of compounds in the screening library against parental, drug-naive (KB-3-1) adenocarcinoma cells as well as their drug-selected MDR sub-line (KB-V1). The differential toxicity of compounds against these two cell lines will be used to identify MDR1-selective compounds, whose cytotoxicity is potentiated, rather than diminished, by P-gp expression. This assay will be utilized to conduct a quantitative high-throughput screen (qHTS) in collaboration with the NIH Chemical Genomics Center to identify selective agents, and probe hits arising from the screen will be validated using secondary assays and characterized through a well-established follow-up research program. This screen was run against the entire NCGC library collection of about 400,000 compounds.
NIH Molecular Libraries Probe Production Network [MLPCN]
NIH Chemical Genomics Center [NCGC]
PI: Michael Gottesman, National Cancer Institute, NIH
Briefly, 5 microL of media containing either KB-V1 cells (columns 1-2, 4-48) are dispensed into Greiner white, treated solid-bottom 1536-well assay plates (media-only control is added to column 3). Compounds are then transferred via Kalypsys pin tool equipped with 1536-pin array (10 nL slotted pins, V&P Scientific, San Diego, CA). Following addition of compound, the plates are incubated at 37 degrees C for 72 hours. CellTiter-Glo (2.5 µL/well) is then added, and the plates are read in a ViewLux reader (Perkin-Elmer, clear luminescence filter, 1 second exposure, 1x binning) following a 10 minute incubation. All cells are dispensed in DMEM phenol-red free media containing 10% FBS.
Library plates were screened starting from the lowest and proceeding to the highest concentration. Vehicle-only plates, with DMSO being pin-transferred to columns 5-48, will be inserted uniformly at the beginning and the end of each library in order to monitor and record any shifts in the background, which can be affected by reagent dispensers or loss in enzyme activity over time. Screening data will be corrected, normalized, and concentration-effect relationships will be derived by using publicly-available NCGC, NCATS curve fitting algorithms (http://ncgc.nih.gov/pub/openhts).
In the case of `COC(=O)c1ccc(CC(C(=O)c2ccccc2)N(C)C)cc1` (configuration not stated), the “activity change, negative = cytotoxicity” value is reported as inactive: 0.138%.
For `C[C@H]1CCC/C=C/[C@@H]2C[C@H](O)C[C@H]2[C@@H](O)/C=C/C(=O)O1`, the Potency was active: 0.184 µM.
For `C[C@H]1CCC/C=C/[C@@H]2C[C@H](O)C[C@H]2[C@H](O)/C=C/C(=O)O1`, the Potency was active: 41.1 nM and active: 580 nM.
With `O=[N+]([O-])c1cnc2ccc3ccccc3c2c1` the “activity change, negative = cytotoxicity” value was inactive: 3.87%.
For `O=C(O)c1cccc2c1NC(c1cccc([N+](=O)[O-])c1)C1CC(Sc3ccccc3[N+](=O)[O-])C(Cl)C21` (configuration not stated), the “activity change, negative = cytotoxicity” value was inactive: 2.9%.
For `CCc1ccc2c(CN3CC=C(c4ccccc4)CC3)cc(=O)oc2c1`, the Potency was inconclusive: 1.64 µM [rising, full curve].
In the case of `CCOC(=O)[C@]12Cc3cc(OC)ccc3[C@H]1N(C)C(=O)c1ccccc12`, the Potency is reported as inconclusive: 23.1 µM [cytotoxic, partial curve, poor fit].
For `COC(=O)C1=C(c2ccc(OCc3ccccc3)cc2)C[C@@H]2CC[C@H]1N2C(=O)NCc1ccccc1`, the Potency was inconclusive: 20.6 µM [cytotoxic, single point].
For `Nc1c(C(=O)Nc2cccc(Br)c2)sc2nc3c(cc12)N1CCC3CC1`, the Potency was inconclusive: 10.3 µM [cytotoxic, partial curve].
With `O=C1OC(c2ccc(Cl)cc2)=N/C1=C\N1CC2CC(C1)c1cccc(=O)n1C2` (configuration not stated) the “activity change, negative = cytotoxicity” value was inactive: -30.2%.
In the case of `CCCCn1c(=O)c(C(=O)Nc2cccc(C)c2)c(O)c2ccccc21`, the Potency is reported as inconclusive: 29.1 µM [cytotoxic, single point].
With `c1cncc(C2CCCCN2Cc2ccc3c(c2)OCO3)c1` (configuration not stated) the Potency was inconclusive: 16.4 µM [cytotoxic, partial curve, poor fit].
With `CC(C)(O)/C=C/C(=O)C(C)(O)C1C(O)CC2(C)C3CC=C4C(C=C(O)C(=O)C4(C)C)C3(C)C(=O)CC12C` (configuration not stated) the Potency was active: 0.92 µM.
With `CNCCCc1ccccc1` the “activity change, negative = cytotoxicity” value was inactive: -12.6%.
For `CN1Cc2cccnc2N(C)Cc2cc(Cl)ccc21`, the Potency was active: 16.4 µM.
With `CC(N)Cc1cn(Cc2ccccc2)c2ccccc12` (configuration not stated) the Potency was inconclusive: 29.1 µM [cytotoxic, partial curve, poor fit].
For `COC(=O)C1=C(c2cc3ccccc3s2)C[C@@H]2CC[C@H]1N2C(=O)N1CCCCC1`, the Potency was inconclusive: 29.1 µM [cytotoxic, single point].
In the case of `O=C(CN1C(=O)CN=C(c2ccccc2)c2ccccc21)Nc1cccc(C(F)(F)F)c1`, the “activity change, negative = cytotoxicity” value is reported as inactive: -4.61%.
With `CCC(C)n1c(O)c(/C=N/NC(=O)c2ccncc2)c(=O)[nH]c1=S` (configuration not stated) the Potency was inconclusive: 29.1 µM [cytotoxic, single point].
In the case of `COc1cc2c3cc1Oc1cc(ccc1O)C[C@@H]1c4c(cc(OC)c(O)c4Oc4ccc(cc4)C[C@H]3N(C)CC2)CCN1C`, the Potency is reported as inconclusive: 13 µM [cytotoxic, partial curve].
With `CC1C(c2cccs2)=[N+]([O-])C(C)(C(=O)c2cccs2)N1O` (configuration not stated) the “activity change, negative = cytotoxicity” value was inactive: -20.2%.
For `O=C(CCNC(=O)N1C[C@H]2C[C@@H](C1)c1cccc(=O)n1C2)Nc1ccc(F)cc1`, the “activity change, negative = cytotoxicity” value was inactive: -2.05%.
With `CCCCn1c(NS(=O)(=O)c2ccc(C)cc2)c(C(=O)OCC)c2nc3ccccc3nc21` the Potency was inconclusive: 8.2 µM [cytotoxic, partial curve, poor fit].
With `CCOC(=O)[C@]12Cc3cc(C)ccc3[C@H]1N(CCC(=O)OC)C(=O)c1cc(OC)ccc12` the Potency was active: 20.6 µM.
With `O=C(CNC(=O)OCc1ccccc1)NCC(=O)Nc1ccc(Br)cc1C(=O)c1ccccc1` the Potency was inconclusive: 5.8 µM [rising, full curve, poor fit].
In the case of `Cc1ccccc1NC(=O)Cc1nc(COC(=O)Cc2ccccc2)cs1`, the Potency is reported as inconclusive: 18.4 µM [rising, single point].
With `CCOC(=O)CC(SP1(=S)OCC2(CCCCO2)C(C2CCCCO2)O1)C(=O)OCC` (configuration not stated) the “activity change, negative = cytotoxicity” value was inactive: -5.39%.
For `C=C1C(C)C2C(Cc3ccccc3)NC(=O)C23C(OC(C)=O)C=CC(C)(O)CC(C)CC=CC3C1O` (configuration not stated), the Potency was inconclusive: 5.8 µM [cytotoxic, partial curve].
With `O=C(COc1ccc(Br)cc1)N1CCN(Cc2ccc3c(c2)OCO3)CC1` the “activity change, negative = cytotoxicity” value was inactive: -23.6%.
With `CCC(=Nc1ccc(OC)cc1OC)c1c(O)[nH]c(=O)[nH]c1=O` the Potency was active: 10.3 µM.
In the case of `CCNC(=S)N(C)CCc1cc2c(c(OC)c1C=C1C(=O)N(C)C(=O)N(C)C1=O)OCO2`, the Potency is reported as inconclusive: 29.1 µM [rising, single point].
With `O=C(Cn1ncc2c3ccccc3n(Cc3ccc(F)cc3)c2c1=O)N1CCC2(CC1)OCCO2` the Potency was inconclusive: 20.6 µM [cytotoxic, single point].
With `Cc1ccc2nc(-c3ccc(CN4CCC(n5c(=O)[nH]c6ccccc65)CC4)cc3)c(-c3ccccc3)nc2c1` the Potency was inconclusive: 23.1 µM [cytotoxic, single point].
For `Cc1ccc(-n2c(O)c(/C=N/Nc3ccccc3)c(=O)[nH]c2=O)cc1C`, the activity change, negative = cytotoxicity was inconclusive: 0%.
With `Cc1cc(NC(=O)CCl)nn1C` the Potency was active: 20.6 µM.
For `Cc1cc(C)cc(N2C(=O)/C(=C\c3ccc(N4CCN(C)CC4)o3)C(=O)NC2=S)c1`, the Potency was inconclusive: 29.1 µM [rising, partial curve, poor fit].
With `O=C1NCN(c2ccccc2)C12CCN(C(c1cccc3ccccc13)c1nnnn1C1CCCC1)CC2` (configuration not stated) the Potency was inconclusive: 23.1 µM [cytotoxic, single point].
For `CC1(C)OC1COc1c2occc2cc2ccc(=O)oc12` (configuration not stated), the Potency was inconclusive: 13 µM [rising, partial curve].
With `CCOC(=O)C1=C(NC(=S)NC(=O)c2ccccc2)c2ccccc2CC12CCCC2` the Potency was inconclusive: 4.61 µM [cytotoxic, partial curve].
In the case of `CCOC(=O)[C@]12Cc3cc(OC)ccc3[C@H]1N(C)C(=O)c1cc(OC)ccc12`, the Potency is reported as inconclusive: 18.4 µM [cytotoxic, single point].
In the case of `COc1cccc(N2CCN(Cc3ccc(Cl)cc3)CC2)c1`, the Potency is reported as active: 16.4 µM.
In the case of `O=C(CCC(=O)N1CC2C[C@@H](C1)Cn1c2cccc1=O)NCCc1ccccc1F`, the Potency is reported as inconclusive: 5.17 µM [rising, partial curve, poor fit].
In the case of `CCCCn1c(=O)c(C(=O)NCc2ccc(Cl)cc2)c(O)c2ccccc21`, the “activity change, negative = cytotoxicity” value is reported as inactive: -4.87%.
In the case of `Cc1cc([N+](=O)[O-])c2ccccc2[n+]1[O-]`, the Potency is reported as active: 0.517 µM.
In the case of `CCOC(=O)c1ccc(NC(=O)c2sc3nc4c(cc3c2N)N2CCC4CC2)cc1`, the “activity change, negative = cytotoxicity” value is reported as inactive: 5.55%.
In the case of `C=C(COC(C)=O)CC1CC(O)[C@]2(C)OC3CC4OC5C[C@]6(C)O[C@]7(C)CCC8OC9C[C@]%10(C)OC%11C(C)=CC(=O)OC%11CC%10OC9C[C@@H](C)C8OC7CC6O[C@]5(C)C/C=C\C4OC3CC2O1` (some centres not stated), the Potency is reported as inconclusive: 29.1 µM [rising, single point].
For `CNC(=O)Oc1cccc(-c2cn3cc(Cl)ccc3n2)c1`, the “activity change, negative = cytotoxicity” value was inactive: -9.64%.
With `O=C/C=C/c1ccccc1` the Potency was inconclusive: 0.0082 µM [rising, full curve, poor fit].
For `CC1C2Cn3c(nc4ccccc43)C1N(C)O2` (configuration not stated), the “activity change, negative = cytotoxicity” value was inactive: 10.3%.
In the case of `CC(=O)OC1(C)CC(C)C(=O)C(C(O)CC2CC(=O)NC(=O)C2)C1` (configuration not stated), the Potency is reported as inconclusive: 0.461 µM [cytotoxic, full curve, poor fit].
In the case of `O=C(O)C1C2c3ccccc3C(=O)C1(C(=O)O)c1ccccc12` (configuration not stated), the “activity change, negative = cytotoxicity” value is reported as inactive: -3.5%.
For `C[C@H]1CC2C3CC=C4C[C@@H](O)CC[C@]4(C)C3CC[C@]2(C)[C@H]1O` (some centres not stated), the Potency was active: 18.4 µM.
In the case of `Cn1cccc1/C=C1\C(=O)NC(=O)N(Cc2ccccc2Cl)C1=O`, the “activity change, negative = cytotoxicity” value is reported as inactive: -7.13%.
In the case of `N#CC(C#N)=C(N)c1cccnc1`, the activity change, negative = cytotoxicity is reported as inconclusive: 12.3%.
For `CCN(CC)C(=O)c1ccc(N(Cc2ccccc2)S(C)(=O)=O)cc1`, the Potency was inconclusive: 18.4 µM [cytotoxic, single point].
For `COc1cccc(C(c2nnnn2-c2c(C)cccc2C)N2CCC(n3c(=O)[nH]c4ccccc43)CC2)c1OC` (configuration not stated), the Potency was inconclusive: 6.51 µM [cytotoxic, partial curve].
For `O=C1NC(=O)C(=Cc2ccc(-c3cc(Cl)ccc3[N+](=O)[O-])o2)C(=O)N1`, the Potency was inconclusive: 18.4 µM [cytotoxic, single point].
In the case of `c1ccc(CCN2CCC(N3CCN(c4ccccc4)CC3)CC2)cc1`, the Potency is reported as inconclusive: 20.6 µM [cytotoxic, partial curve].
With `CCCC(=O)NC(Oc1ccc(Cl)cc1Cl)C(Cl)(Cl)Cl` (configuration not stated) the “activity change, negative = cytotoxicity” value was inactive: 19.4%.
With `CN(C)[C@@H]1C(=O)C(C(N)=O)=C(O)[C@@]2(O)C(=O)C3=C(O)c4c(O)ccc(Cl)c4[C@@](C)(O)[C@H]3C[C@@H]12` the Potency was inconclusive: 25.9 µM [cytotoxic, single point].
In the case of `O=c1c2ccccc2nc(Cc2cccc([N+](=O)[O-])c2)n1-c1ccc(O)cc1`, the “activity change, negative = cytotoxicity” value is reported as inactive: -7.3%.
For `Cc1ccc(S(=O)(=O)N(C)CCCC(=O)N2CCN(c3ccccn3)CC2)cc1`, the Potency was inconclusive: 11.6 µM [cytotoxic, partial curve].
With `CC(C)c1ccc(O)c(CN2CCN(c3ccccc3)CC2)c1` the Potency was inconclusive: 18.4 µM [cytotoxic, single point].
With `COC(=O)C1=C(c2ccc(-c3ccccc3)c(F)c2)C[C@@H]2CC[C@H]1N2C(=O)NCCO` the Potency was inconclusive: 4.61 µM [cytotoxic, full curve, poor fit].
With `CC(NCc1ccc(Cl)cc1Cl)C(O)c1ccccc1` (configuration not stated) the Potency was inconclusive: 20.6 µM [cytotoxic, partial curve].
For `COc1ccc(/C=N\N=C(N)N)cc1`, the Potency was inconclusive: 18.4 µM [cytotoxic, single point].
For `O=C(c1ccc(Cl)cc1)C1CCCN(Cc2cccc3cnccc23)C1` (configuration not stated), the Potency was inconclusive: 0.116 µM [cytotoxic, full curve, poor fit].
